Assay results as given in the supplement of paper PMC11006884.
This is a selection; strong and weak results do not stand in their true shares.

Sequences of proteins named here, by UniProt entry; tags and fusion partners are left off. A change or cut given only in a name is not applied to a line headed by its entry.
UniProt Q9BUF5, whole entry, looked up: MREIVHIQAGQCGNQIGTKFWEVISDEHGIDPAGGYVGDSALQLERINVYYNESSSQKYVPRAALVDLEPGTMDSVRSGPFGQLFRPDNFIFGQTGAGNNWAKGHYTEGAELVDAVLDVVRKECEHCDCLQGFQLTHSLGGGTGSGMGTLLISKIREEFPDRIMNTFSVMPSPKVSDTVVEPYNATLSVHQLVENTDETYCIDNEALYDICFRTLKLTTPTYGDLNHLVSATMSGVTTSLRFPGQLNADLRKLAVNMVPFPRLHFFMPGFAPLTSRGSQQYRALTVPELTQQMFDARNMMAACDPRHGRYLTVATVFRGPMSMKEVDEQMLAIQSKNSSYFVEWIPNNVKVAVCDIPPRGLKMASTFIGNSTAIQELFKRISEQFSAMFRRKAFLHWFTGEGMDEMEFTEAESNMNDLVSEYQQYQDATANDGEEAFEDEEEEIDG
UniProt Q9H0A0: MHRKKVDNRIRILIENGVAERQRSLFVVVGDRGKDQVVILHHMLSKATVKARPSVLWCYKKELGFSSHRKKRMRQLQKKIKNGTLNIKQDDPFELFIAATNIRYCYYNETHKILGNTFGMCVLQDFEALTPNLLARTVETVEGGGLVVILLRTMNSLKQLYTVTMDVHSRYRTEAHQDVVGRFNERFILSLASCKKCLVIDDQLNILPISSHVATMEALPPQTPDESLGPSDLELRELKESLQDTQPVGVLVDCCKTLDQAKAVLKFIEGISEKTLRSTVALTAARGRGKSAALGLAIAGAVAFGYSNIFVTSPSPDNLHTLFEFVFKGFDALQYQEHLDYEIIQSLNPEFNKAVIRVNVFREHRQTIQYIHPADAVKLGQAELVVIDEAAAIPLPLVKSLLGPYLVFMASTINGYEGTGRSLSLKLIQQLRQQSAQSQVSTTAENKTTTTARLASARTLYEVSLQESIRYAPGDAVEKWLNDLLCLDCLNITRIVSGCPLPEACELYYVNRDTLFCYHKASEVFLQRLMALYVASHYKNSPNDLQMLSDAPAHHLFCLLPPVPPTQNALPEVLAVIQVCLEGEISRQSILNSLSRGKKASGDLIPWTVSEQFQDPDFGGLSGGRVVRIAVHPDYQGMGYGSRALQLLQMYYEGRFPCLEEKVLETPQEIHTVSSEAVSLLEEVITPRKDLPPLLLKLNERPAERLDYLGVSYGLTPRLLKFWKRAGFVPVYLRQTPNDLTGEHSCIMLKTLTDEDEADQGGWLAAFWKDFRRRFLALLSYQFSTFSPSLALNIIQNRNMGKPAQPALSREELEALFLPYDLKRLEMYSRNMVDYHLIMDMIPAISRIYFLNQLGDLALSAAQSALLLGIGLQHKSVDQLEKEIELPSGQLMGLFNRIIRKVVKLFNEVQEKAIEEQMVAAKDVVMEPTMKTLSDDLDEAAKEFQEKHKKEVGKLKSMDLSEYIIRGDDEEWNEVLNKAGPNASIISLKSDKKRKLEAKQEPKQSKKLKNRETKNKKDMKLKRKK
UniProt Q9BTW9: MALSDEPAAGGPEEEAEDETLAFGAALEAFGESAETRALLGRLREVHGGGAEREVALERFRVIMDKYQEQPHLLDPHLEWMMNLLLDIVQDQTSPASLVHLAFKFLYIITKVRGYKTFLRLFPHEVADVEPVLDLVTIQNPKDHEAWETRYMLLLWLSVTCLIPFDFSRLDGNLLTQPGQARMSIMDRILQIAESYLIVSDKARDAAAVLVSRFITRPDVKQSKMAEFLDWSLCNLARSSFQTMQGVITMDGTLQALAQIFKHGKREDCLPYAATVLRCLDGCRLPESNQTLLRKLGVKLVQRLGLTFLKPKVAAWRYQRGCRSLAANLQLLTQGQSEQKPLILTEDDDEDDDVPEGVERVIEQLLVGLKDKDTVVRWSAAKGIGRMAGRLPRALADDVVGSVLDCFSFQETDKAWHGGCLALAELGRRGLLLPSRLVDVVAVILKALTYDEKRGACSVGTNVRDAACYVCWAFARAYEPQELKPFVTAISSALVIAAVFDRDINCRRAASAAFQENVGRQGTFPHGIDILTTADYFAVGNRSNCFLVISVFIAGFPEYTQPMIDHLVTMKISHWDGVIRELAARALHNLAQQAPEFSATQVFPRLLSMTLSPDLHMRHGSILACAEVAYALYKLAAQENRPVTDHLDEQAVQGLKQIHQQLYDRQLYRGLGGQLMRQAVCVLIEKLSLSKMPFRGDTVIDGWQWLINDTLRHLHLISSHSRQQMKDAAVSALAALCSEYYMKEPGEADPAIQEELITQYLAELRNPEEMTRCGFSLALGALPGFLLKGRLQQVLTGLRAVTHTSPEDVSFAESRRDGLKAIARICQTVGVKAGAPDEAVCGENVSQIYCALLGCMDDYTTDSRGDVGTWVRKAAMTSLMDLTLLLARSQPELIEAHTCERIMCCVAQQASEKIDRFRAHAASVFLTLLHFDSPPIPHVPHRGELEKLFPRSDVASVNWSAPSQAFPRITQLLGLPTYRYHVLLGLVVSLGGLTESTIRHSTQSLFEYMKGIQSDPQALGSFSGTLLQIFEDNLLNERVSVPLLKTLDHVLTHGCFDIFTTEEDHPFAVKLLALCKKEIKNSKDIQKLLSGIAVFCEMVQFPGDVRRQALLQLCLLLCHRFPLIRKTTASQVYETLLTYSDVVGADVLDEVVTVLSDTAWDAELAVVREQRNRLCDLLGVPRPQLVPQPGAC
UniProt Q9BSH5: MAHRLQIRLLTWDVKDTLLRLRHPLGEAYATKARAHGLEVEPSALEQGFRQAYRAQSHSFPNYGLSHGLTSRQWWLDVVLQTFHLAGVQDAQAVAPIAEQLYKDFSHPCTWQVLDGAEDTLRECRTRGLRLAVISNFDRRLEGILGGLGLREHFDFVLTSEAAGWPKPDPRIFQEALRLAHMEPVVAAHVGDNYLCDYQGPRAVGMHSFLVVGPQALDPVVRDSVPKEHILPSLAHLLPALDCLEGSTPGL
UniProt Q9BXP2: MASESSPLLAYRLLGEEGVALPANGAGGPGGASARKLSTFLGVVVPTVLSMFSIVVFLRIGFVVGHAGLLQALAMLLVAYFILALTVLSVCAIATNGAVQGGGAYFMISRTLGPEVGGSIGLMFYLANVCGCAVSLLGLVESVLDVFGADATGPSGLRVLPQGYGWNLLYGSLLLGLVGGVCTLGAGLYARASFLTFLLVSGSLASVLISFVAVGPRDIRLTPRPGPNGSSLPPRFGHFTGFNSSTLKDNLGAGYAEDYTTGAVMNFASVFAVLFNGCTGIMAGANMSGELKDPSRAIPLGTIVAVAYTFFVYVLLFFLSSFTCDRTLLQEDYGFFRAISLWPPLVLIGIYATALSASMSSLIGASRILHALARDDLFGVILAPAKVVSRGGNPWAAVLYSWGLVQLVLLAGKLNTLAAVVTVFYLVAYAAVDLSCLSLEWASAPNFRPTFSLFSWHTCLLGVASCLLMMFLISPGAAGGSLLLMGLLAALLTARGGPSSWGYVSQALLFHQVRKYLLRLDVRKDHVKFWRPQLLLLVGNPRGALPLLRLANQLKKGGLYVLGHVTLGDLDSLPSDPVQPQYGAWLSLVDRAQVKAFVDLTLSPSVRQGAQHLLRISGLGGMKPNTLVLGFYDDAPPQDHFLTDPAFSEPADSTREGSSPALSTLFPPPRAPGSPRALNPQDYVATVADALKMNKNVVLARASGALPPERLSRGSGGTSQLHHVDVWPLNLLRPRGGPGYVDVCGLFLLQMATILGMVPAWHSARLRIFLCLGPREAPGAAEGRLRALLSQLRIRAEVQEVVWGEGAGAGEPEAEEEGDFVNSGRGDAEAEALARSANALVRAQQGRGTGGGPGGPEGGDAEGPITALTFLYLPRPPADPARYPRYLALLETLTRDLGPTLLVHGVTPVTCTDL
UniProt Q9H2G2: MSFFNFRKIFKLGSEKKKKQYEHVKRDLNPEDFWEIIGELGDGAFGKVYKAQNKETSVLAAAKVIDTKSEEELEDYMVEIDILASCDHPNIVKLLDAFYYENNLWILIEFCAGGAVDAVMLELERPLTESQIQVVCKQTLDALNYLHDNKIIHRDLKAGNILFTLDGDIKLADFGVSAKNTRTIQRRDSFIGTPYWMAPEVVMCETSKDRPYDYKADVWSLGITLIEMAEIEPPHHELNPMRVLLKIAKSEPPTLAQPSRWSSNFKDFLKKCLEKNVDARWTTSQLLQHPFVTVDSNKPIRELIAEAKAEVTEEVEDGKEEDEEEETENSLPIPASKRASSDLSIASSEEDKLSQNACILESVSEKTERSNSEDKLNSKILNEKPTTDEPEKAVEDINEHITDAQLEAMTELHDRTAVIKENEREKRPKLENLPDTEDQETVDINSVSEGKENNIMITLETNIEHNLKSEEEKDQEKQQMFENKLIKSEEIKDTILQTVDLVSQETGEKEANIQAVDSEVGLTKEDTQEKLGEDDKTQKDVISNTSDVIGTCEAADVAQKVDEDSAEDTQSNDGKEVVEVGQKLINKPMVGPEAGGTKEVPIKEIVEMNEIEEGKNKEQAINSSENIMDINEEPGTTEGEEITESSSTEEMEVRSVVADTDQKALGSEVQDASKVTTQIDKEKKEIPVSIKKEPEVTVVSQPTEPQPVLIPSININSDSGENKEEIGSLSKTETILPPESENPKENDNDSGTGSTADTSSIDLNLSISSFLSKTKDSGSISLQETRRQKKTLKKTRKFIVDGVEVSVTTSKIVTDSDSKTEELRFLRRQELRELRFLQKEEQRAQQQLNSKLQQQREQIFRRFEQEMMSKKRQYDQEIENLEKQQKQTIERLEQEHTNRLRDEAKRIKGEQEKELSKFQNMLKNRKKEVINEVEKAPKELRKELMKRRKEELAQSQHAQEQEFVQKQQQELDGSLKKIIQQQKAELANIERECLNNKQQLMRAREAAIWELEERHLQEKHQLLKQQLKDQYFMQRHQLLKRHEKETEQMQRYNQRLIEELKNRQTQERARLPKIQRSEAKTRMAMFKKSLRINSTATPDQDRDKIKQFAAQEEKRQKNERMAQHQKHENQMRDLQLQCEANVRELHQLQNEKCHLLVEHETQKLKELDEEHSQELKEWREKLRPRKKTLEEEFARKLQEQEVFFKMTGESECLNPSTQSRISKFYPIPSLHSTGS
UniProt Q9BUJ2: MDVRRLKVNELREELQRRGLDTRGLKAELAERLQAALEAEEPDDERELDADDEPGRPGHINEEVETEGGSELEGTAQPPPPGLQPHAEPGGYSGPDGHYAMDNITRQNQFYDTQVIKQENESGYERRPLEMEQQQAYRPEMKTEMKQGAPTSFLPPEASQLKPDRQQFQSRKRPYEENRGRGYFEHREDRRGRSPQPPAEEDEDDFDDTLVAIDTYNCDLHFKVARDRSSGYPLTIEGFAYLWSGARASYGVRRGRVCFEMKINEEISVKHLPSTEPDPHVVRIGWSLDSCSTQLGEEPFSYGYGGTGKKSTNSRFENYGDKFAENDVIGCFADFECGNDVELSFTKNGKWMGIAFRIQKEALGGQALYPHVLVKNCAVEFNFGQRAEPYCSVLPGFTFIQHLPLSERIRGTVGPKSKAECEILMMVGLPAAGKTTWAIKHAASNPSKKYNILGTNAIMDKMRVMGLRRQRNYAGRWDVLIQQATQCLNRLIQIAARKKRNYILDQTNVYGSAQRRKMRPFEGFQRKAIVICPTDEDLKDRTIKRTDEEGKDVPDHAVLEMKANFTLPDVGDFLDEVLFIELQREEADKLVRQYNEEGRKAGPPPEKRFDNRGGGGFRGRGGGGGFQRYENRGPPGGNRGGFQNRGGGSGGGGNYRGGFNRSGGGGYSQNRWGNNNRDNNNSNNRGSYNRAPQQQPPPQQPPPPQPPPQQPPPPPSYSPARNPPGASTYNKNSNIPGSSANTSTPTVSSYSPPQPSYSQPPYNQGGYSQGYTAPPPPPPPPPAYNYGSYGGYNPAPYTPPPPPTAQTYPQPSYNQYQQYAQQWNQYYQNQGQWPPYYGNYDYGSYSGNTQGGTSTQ
UniProt Q9BW27: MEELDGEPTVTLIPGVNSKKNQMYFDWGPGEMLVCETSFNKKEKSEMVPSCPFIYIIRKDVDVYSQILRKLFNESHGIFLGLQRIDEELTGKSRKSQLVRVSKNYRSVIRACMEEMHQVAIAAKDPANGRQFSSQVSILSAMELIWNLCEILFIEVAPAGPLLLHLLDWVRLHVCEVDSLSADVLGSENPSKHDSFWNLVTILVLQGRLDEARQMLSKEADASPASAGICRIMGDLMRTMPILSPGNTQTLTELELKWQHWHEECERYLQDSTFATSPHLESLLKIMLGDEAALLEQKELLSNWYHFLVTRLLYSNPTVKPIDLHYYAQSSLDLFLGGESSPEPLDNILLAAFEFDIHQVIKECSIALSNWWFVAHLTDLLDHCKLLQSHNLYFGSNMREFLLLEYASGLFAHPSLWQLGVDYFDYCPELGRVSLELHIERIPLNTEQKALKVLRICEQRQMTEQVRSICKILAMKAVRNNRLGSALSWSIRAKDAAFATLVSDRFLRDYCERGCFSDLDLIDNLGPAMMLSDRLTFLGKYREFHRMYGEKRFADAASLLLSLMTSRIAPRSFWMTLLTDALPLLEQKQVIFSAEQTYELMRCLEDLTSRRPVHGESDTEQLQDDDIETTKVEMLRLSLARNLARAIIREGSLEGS

These targets were tested with COC(=O)C#Cc1ccccc1 [methyl 3-phenylpropiolate] (assay: log2 ratio of iodoacetamide-alkyne labeling of the cysteine site, DMSO over compound (competition); higher = stronger covalent engagement of the cysteine by the compound, active = 1 or more). Details: 500 µM; treatment time 1 h; system: HEK293T cell lysate.
Outline: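 After 1 h at ambient temperature with vehicle or electrophile (500 µM), HEK293T lysate (2 mg/mL) was labelled for 1 h with iodoacetamide alkyne and clicked to sCIP-TMT reagents. Pooled samples were trypsin-digested overnight at 37 °C, streptavidin-enriched, acid-eluted and analysed by Orbitrap Eclipse LC-MS/MS with FAIMS, then quantified in FragPipe over three replicates with duplicate channels. A cysteine's log2 competition ratio is its mean control-channel over mean compound-channel reporter intensity. Cysteines quantified in only one replicate were not included.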

log2 ratio of iodoacetamide-alkyne labeling, inactive:
TNKS1BP1 C794 (UniProt Q9C0C2) 0.704
RAB3GAP2 C67 (UniProt Q9H2M9) 0.306
TUBB6 C12 (UniProt Q9BUF5) 0.0468
RAB3GAP2 C78 (UniProt Q9H2M9) 0.101
NAT10 C489 (UniProt Q9H0A0) 0.0616
TBCD C1175 (UniProt Q9BTW9) 0.204
DHX36 C234 (UniProt Q9H2U1) 0.19
UniProt Q9BYG3_C269 0.771
PDCL3 C127 (UniProt Q9H2J4) -0.0528
HDHD3 C196 (UniProt Q9BSH5) 0.144
SLC12A9 C911 (UniProt Q9BXP2) 0.192
SLK C1212 (UniProt Q9H2G2) 0.366
HNRNPUL1 C421 (UniProt Q9BUJ2) 0.182
NUP85 C515 (UniProt Q9BW27) 0.308
DDA1 C25 (UniProt Q9BW61) 0.36
MRPL37 C153 (UniProt Q9BZE1) 0.187

Already shown: an excerpt of the list.
log2 ratio of iodoacetamide-alkyne labeling, inactive:
NUP85 C515 (UniProt Q9BW27) 0.308
DDA1 C25 (UniProt Q9BW61) 0.36
